The whole screen tested about 330,000 compounds, of which about 7,700 (2.3%) were called active. The shares of active, inactive and inconclusive entries below differ from those in the screen. Calls follow the shape of the dose curve; as a rule, active = well fitted inhibition curve with a large enough effect; inconclusive = small, poorly fitted or top-dose-only effect, or effect the other way; inactive = flat fitted curve, though single readings scatter. A potency beside an inconclusive call is a rough fit, not a confirmed value.
Assay: qHTS screen for small molecules that inhibit ELG1-dependent DNA repair in human embryonic kidney (HEK293T) cells expressing luciferase-tagged ELG1; also: nearly all actives have a fitted effect of over 55% in size
Conditions: HEK293T ELG1-luciferase reporter, luminescence, 16 h, DNA damage induced by 5-fluorouridine; series mostly up to 46.1 µM
How it was run: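 Reporter activity after DNA damage by 5-fluorouridine is monitored. Compound-treated cells incubate 16 hr at 37 °C, then ONE-Glo is added for 30 min before luminescence reading.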
Potency is read from the fitted curve at half-maximal effect.

Row | Structure (SMILES) | Potency
1 | COC(=O)c1sc(NC(=O)COc2cccc(C)c2)nc1C | inconclusive: 20.6 µM [activator, partial curve, poor fit]
2 | CCOC(=O)c1cc(-c2ccc(C)cc2)n(CCC(=O)N2CCN(c3ccccn3)CC2)c1C | active: 20.6 µM
3 | Cc1c(-c2nc(N)nc(Nc3ccccc3)n2)oc2ccccc12 | inconclusive: 2.59 µM [activator, partial curve]
4 | CC(=O)c1cccc(NC(=O)NC2CCCc3ccccc32)c1 (stereo not given) | inactive
5 | c1ccc2[nH]c(CSc3ncnc4c3oc3ccccc34)nc2c1 | inactive
6 | COc1cc(C=O)ccc1OCC(=O)N1CCCC1 | inactive
7 | CC(C)(C)CNC(=O)[C@]1(C)CCC[C@@]2(C)C3CC[C@@]4(C)C[C@]3(CCC21)CC4=O (stereo not given in full) | inactive
8 | COc1ccc(-c2ccc(CNCc3ccccn3)o2)cc1Cl | inconclusive: 1.16 µM [activator, partial curve, poor fit]
9 | COc1ccc(C(=O)Nn2cnnc2)cc1OC | inactive
10 | Cc1ccc(C(=O)N/N=C/c2ccc3c(c2)OCO3)o1 | inconclusive: 10.3 µM [activator, partial curve]
11 | CCCSc1nnc(NC(=O)CSc2sc3c(O)cc(=O)[nH]c3c2C#N)s1 | inactive
12 | CN(CCCN1CCOCC1)C(=O)c1ccc2nc(Cc3cccc(Cl)c3)oc2c1 | active: 14.6 µM
13 | Cn1ccnc1C(=O)c1ccc(S(=O)(=O)N2CCCC2)cc1 | inactive
14 | Cc1cc(C(=O)COC(=O)c2csc3c2CCCC3)c(C)n1C | inconclusive: 18.4 µM [activator, single point]
15 | CCOC(=O)c1sc(NC(=O)CSC(=S)N2CCN(C)CC2)nc1C | inactive
16 | CCC1CCCCN1C(=O)COC(=O)CN(C)S(=O)(=O)c1ccc(NC(C)=O)cc1 (stereo not given) | inactive
17 | O=C(CSc1ccccc1)Nc1ccc2sccc2c1 | inconclusive: 23.1 µM [activator, single point]
18 | COc1ccccc1Nc1nc(C2(C)CCC(=O)O2)cs1 (stereo not given) | inconclusive: 20.6 µM [activator, partial curve]
19 | CCCC(C(=O)NC(C)(C)C)N(Cc1ccccc1Cl)C(=O)c1snc(C(N)=O)c1N (stereo not given) | inconclusive: 29.1 µM [inhibitor, partial curve, poor fit]
20 | CC(=O)Cc1nsc(NC(=O)c2ccc(-c3ccc(Cl)cc3Cl)o2)n1 | inactive
21 | S=c1[nH]nc(-c2ccc(Cl)cc2)n1-c1cccnc1 | inactive
22 | O=c1cc(NCc2ccco2)c2ccccc2o1 | inactive
23 | CCOc1ccc(CCNC(=O)CS(=O)Cc2nc(-c3ccc(C)cc3)oc2C)cc1 (stereo not given) | inconclusive: 29.1 µM [inhibitor, single point]
24 | COC(=O)C1=CN(c2cccc(C)c2)C=C(C(=O)OC)C1c1cc(OC)c(O)c([N+](=O)[O-])c1 | inactive
25 | CN(CC(=O)Nc1c(Cl)cccc1Cl)C(=O)c1sccc1-c1ccccc1 | inconclusive: 3.66 µM [inhibitor, single point]

Retrieved one by one from the list above:
Row | Structure (SMILES) | Potency
15 | CCOC(=O)c1sc(NC(=O)CSC(=S)N2CCN(C)CC2)nc1C | inactive
24 | COC(=O)C1=CN(c2cccc(C)c2)C=C(C(=O)OC)C1c1cc(OC)c(O)c([N+](=O)[O-])c1 | inactive

(next part)

Row | Structure (SMILES) | Potency
26 | CCOc1cc(C)nc(NCCc2ccc(OC)c(OC)c2)n1 | inconclusive: 5.17 µM [inhibitor, single point]
27 | O=C(Nc1ccc(Cl)cc1)Nc1nnc(/C=C/c2ccccc2)s1 | inconclusive: 4.61 µM [inhibitor, full curve]
28 | C=CCC(C(=O)NC(C)c1ccccc1)C(=O)NC(C)c1ccccc1 (stereo not given) | inactive
29 | Cc1nc([N+](=O)[O-])c(C(=O)OCc2ccc(C#N)cc2)n1C | inactive
30 | Cc1ccc(Cn2ccsc2=NC(=O)COC(=O)c2ccc(O)cc2O)cc1 | inactive
31 | O=C(Nc1nc(-c2ccc(F)c(F)c2)cs1)c1cnccn1 | inactive
32 | Cc1cc(=O)[nH]c(SCC(=O)/C=C2\N(C)c3ccccc3C2(C)C)n1 | inactive
33 | CCOc1ccc(-c2nc(-c3cccnc3)no2)cc1 | inconclusive: 1.64 µM [activator, partial curve]
34 | O=C(CC1CCCC1)Nc1ccc(Br)cc1 | inconclusive: 20.6 µM [activator, partial curve]
35 | O=C(NCCc1ccccc1)c1cccnc1 | inconclusive: 14.6 µM [activator, partial curve]
36 | Cc1ccccc1NC(NC(=O)OCCn1c([N+](=O)[O-])cnc1C)C(Cl)(Cl)Cl (stereo not given) | inactive
37 | O=C(NC1CCCCCCC1)c1cnccn1 | inconclusive: 16.4 µM [activator, single point]
38 | Cc1ccc2cc3cc(C(=O)N4CCN(Cc5ccccc5)CC4)sc3nc2c1 | inconclusive: 32.6 µM [activator, partial curve, poor fit]
39 | O=C(COc1cccc([N+](=O)[O-])c1)N/N=C/c1ccco1 | inactive
40 | COc1ccc(OC)c(NC(=O)CN2C(=O)C(C)N(c3ccc(C)cc3)C2=O)c1 (stereo not given) | inactive
41 | COc1ccc(CCN=C(C)C2=C(O)C(c3ccccc3)OC2=O)cc1OC (stereo not given) | inactive
42 | C[C@H](NC(=O)c1ccccc1)C(=O)Nc1nc(-c2ccccn2)cs1 | active: 7.3 µM
43 | Nc1ccccc1Oc1ncc(C(F)(F)F)cc1Cl | inconclusive: 16.4 µM [activator, single point]
44 | Cc1snc(SCC(=O)c2ccc(F)cc2)c1C#N | inconclusive: 23.1 µM [activator, partial curve]
45 | COc1ccc(Cn2c(-c3ccc(OC)cc3)nc3c(c(=O)c4ccccc4n3C)c2=O)cc1 | inconclusive: 10.3 µM [inhibitor, partial curve, poor fit]
46 | Cc1ccc(C)c(S(=O)(=O)NC(C)C(=O)Nc2ccc(-c3nc4ccccc4s3)cc2)c1 (stereo not given) | inconclusive: 3.26 µM [activator, full curve]
47 | COC(=O)[C@@]1(C)[C@H]2C(=O)N(C)C(=O)[C@H]2[C@H]2CN=C(SCc3ccc(Cl)cc3)N21 | inactive
48 | N#CCn1cnc2c(oc3ccccc32)c1=O | inconclusive: 23.1 µM [activator, single point]
49 | C=C(C)n1c(=O)[nH]c2ccccc21 | inconclusive: 20.6 µM [activator, single point]
50 | CC(O)[C@H]1CNCCN1CC1(c2ccccc2)CC1 (stereo not given in full) | inconclusive: 23.1 µM [activator, single point]

Reformatted as a markdown table: 2 of the compounds above

| Row | Structure (SMILES) | Potency |
| --- | --- | --- |
| 2 | CCOC(=O)c1cc(-c2ccc(C)cc2)n(CCC(=O)N2CCN(c3ccccn3)CC2)c1C | active: 20.6 µM |
| 3 | Cc1c(-c2nc(N)nc(Nc3ccccc3)n2)oc2ccccc12 | inconclusive: 2.59 µM [activator, partial curve] |
